In paper PMC6769007:
No constants are given. Whether binding was seen depends on the method and setting. In cells and extracts the contact can be indirect. Some results given as binding are weak or reduced against the parent protein; the word gives no strength. Sequences can lack the tags named with a protein.

Target: T1, Flag-TRIM71 (human) (UniProt Q2Q1W2)
T1 sequence: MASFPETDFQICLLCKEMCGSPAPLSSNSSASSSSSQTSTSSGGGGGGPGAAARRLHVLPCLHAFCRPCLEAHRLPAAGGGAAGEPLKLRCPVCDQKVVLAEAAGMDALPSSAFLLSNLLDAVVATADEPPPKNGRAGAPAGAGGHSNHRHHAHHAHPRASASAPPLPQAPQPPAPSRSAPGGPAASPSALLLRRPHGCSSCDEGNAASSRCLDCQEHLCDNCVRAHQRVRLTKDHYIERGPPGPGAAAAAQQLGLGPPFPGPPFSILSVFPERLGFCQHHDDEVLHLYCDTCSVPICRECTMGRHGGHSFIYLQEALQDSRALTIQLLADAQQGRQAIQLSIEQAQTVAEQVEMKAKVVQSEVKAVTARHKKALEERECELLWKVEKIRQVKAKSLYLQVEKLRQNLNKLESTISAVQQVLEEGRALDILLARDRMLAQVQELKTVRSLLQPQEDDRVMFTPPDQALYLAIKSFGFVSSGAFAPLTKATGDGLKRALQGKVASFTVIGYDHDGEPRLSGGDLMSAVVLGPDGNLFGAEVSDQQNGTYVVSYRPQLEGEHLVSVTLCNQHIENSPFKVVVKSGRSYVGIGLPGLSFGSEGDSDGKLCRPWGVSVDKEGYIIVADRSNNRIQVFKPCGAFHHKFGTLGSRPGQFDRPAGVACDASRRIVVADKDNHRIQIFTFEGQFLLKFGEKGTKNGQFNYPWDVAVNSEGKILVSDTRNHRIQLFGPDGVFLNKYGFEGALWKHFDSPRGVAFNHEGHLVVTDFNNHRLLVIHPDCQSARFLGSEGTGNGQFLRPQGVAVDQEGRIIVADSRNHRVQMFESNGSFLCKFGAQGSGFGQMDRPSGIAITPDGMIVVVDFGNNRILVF
Assay: co-IP; reverse co-IP with the anti-Flag antibody (Fig. 1c); HCT116 p53-/- cells transfected with Flag-TRIM71 and mtp53s or wtp53

With “wild-type p53 (exogenous) (from UniProt P04637 1-393)” the binding was “binds weakly”.
